According to the supplement of paper PMC10849652:
The other results are listed elsewhere or left out.

Sequences of proteins named here, by UniProt entry; tags and fusion partners are left off. A change or cut given only in a name is not applied to a line headed by its entry.
UniProt Q9NQT8: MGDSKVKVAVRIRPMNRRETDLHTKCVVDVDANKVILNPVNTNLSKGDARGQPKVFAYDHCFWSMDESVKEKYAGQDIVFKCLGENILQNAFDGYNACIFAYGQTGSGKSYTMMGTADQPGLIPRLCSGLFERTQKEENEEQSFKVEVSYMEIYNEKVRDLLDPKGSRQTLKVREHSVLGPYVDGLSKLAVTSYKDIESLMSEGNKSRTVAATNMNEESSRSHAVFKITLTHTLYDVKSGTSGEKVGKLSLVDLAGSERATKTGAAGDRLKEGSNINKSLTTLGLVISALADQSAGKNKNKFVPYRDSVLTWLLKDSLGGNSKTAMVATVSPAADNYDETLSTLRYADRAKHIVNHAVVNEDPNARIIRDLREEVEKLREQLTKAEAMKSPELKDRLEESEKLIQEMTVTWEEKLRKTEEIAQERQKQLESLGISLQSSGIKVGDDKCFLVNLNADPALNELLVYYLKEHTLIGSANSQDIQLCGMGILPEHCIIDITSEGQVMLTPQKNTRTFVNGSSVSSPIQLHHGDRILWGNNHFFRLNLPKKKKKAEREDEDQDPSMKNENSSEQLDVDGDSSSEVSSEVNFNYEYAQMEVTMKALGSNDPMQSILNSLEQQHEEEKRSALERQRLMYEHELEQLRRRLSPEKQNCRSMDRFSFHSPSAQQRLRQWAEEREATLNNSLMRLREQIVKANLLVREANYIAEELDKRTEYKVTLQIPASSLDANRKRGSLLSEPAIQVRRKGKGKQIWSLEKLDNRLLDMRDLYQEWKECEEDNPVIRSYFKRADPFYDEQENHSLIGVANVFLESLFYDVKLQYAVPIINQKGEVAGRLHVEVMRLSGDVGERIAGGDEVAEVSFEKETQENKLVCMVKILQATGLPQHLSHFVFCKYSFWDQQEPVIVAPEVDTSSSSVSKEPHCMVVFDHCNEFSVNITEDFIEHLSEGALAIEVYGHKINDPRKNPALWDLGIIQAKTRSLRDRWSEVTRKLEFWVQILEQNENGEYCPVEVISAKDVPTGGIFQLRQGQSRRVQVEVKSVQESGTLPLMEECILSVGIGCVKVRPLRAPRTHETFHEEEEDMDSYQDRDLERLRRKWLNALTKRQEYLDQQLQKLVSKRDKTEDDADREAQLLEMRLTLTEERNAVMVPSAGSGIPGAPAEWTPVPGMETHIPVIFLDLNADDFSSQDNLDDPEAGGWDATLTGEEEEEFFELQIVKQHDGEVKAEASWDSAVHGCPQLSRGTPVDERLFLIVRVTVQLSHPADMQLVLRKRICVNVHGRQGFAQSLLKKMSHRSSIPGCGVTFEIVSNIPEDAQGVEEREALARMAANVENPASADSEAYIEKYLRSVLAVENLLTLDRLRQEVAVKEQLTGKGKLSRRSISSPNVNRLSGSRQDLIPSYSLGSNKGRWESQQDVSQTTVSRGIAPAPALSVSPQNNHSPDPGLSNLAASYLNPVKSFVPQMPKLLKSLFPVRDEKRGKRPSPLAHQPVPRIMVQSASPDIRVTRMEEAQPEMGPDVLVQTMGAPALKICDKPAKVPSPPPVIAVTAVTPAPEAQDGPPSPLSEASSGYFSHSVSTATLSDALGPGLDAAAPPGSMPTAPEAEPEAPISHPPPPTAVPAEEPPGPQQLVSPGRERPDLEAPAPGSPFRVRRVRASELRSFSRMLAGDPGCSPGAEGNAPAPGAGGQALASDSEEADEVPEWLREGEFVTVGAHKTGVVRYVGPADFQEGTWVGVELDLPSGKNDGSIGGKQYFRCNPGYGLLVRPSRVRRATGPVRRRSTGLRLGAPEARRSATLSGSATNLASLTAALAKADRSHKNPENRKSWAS
UniProt Q9NSK0: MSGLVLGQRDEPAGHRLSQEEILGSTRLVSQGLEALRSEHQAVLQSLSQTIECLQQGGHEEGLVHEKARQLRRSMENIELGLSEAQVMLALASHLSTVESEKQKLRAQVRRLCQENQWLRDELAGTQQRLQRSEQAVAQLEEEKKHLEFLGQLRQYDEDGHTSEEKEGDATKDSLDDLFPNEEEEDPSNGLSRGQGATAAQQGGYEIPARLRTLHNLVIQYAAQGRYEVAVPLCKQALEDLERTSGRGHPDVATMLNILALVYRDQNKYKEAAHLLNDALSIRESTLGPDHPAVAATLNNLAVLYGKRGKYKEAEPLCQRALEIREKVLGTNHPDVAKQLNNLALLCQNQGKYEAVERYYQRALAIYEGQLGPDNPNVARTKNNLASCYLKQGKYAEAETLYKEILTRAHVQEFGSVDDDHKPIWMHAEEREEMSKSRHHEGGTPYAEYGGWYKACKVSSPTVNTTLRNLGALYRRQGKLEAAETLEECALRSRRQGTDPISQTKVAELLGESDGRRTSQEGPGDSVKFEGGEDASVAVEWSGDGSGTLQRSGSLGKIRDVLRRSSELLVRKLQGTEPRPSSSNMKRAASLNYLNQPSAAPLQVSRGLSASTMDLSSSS
UniProt Q02241: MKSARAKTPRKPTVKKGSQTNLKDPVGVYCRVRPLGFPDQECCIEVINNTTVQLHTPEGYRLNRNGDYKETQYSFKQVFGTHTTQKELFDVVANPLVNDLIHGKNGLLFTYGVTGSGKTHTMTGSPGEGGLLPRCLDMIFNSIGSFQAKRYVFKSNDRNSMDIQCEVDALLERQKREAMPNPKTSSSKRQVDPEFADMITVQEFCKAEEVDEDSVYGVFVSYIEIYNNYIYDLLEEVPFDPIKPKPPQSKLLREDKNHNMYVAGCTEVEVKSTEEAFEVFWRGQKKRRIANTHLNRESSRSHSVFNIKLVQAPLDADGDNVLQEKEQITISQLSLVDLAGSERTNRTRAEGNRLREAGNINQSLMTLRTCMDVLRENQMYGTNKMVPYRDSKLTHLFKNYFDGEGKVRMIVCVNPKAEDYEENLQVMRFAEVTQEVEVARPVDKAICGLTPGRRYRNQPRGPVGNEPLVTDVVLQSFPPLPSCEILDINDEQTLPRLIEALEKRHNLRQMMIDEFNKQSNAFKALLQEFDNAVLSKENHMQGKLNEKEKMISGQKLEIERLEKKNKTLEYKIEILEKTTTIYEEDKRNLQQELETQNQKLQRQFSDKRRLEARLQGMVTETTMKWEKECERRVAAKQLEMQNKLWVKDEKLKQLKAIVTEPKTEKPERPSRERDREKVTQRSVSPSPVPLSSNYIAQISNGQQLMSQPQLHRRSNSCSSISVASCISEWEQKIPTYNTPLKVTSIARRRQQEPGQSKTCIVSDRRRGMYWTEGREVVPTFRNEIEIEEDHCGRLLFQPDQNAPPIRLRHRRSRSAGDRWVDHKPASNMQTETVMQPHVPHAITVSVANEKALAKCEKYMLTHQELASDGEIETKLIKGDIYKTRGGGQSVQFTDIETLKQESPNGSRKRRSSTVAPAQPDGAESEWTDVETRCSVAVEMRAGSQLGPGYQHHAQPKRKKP
UniProt Q8IZA0: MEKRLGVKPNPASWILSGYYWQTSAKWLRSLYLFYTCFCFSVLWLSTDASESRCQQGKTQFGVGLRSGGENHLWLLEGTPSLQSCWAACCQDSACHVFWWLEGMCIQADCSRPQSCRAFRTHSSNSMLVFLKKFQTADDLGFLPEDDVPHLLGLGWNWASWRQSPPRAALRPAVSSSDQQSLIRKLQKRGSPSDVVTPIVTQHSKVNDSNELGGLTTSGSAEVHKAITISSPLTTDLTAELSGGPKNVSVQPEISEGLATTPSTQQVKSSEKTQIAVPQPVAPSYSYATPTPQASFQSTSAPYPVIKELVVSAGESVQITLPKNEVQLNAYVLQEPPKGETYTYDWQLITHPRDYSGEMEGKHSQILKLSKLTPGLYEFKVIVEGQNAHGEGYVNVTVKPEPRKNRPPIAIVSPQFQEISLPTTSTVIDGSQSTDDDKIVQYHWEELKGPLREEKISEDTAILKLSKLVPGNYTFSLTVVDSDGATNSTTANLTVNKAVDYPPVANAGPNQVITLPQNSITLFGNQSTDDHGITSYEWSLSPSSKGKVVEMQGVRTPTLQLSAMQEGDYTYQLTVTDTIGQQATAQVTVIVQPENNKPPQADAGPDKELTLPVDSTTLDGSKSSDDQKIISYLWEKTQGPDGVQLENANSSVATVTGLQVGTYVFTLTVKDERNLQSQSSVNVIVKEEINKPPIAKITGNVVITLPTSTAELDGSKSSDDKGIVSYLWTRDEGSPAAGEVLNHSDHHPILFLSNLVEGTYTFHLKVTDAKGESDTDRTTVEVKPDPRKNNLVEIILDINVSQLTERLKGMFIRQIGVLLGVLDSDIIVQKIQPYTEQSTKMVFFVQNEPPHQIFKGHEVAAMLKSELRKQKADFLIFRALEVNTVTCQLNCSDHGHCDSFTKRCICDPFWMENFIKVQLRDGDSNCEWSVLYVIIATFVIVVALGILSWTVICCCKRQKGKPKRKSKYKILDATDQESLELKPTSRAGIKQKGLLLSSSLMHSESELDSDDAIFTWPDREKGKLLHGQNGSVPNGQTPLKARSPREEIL
UniProt P50053: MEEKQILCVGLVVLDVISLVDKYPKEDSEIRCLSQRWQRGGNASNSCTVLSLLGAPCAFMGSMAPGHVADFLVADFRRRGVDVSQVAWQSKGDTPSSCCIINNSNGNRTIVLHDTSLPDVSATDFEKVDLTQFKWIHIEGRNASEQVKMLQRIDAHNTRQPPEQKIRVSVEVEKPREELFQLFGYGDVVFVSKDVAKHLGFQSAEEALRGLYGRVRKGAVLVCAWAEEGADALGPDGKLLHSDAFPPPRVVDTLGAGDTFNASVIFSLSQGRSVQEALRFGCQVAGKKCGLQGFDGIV
UniProt O60333: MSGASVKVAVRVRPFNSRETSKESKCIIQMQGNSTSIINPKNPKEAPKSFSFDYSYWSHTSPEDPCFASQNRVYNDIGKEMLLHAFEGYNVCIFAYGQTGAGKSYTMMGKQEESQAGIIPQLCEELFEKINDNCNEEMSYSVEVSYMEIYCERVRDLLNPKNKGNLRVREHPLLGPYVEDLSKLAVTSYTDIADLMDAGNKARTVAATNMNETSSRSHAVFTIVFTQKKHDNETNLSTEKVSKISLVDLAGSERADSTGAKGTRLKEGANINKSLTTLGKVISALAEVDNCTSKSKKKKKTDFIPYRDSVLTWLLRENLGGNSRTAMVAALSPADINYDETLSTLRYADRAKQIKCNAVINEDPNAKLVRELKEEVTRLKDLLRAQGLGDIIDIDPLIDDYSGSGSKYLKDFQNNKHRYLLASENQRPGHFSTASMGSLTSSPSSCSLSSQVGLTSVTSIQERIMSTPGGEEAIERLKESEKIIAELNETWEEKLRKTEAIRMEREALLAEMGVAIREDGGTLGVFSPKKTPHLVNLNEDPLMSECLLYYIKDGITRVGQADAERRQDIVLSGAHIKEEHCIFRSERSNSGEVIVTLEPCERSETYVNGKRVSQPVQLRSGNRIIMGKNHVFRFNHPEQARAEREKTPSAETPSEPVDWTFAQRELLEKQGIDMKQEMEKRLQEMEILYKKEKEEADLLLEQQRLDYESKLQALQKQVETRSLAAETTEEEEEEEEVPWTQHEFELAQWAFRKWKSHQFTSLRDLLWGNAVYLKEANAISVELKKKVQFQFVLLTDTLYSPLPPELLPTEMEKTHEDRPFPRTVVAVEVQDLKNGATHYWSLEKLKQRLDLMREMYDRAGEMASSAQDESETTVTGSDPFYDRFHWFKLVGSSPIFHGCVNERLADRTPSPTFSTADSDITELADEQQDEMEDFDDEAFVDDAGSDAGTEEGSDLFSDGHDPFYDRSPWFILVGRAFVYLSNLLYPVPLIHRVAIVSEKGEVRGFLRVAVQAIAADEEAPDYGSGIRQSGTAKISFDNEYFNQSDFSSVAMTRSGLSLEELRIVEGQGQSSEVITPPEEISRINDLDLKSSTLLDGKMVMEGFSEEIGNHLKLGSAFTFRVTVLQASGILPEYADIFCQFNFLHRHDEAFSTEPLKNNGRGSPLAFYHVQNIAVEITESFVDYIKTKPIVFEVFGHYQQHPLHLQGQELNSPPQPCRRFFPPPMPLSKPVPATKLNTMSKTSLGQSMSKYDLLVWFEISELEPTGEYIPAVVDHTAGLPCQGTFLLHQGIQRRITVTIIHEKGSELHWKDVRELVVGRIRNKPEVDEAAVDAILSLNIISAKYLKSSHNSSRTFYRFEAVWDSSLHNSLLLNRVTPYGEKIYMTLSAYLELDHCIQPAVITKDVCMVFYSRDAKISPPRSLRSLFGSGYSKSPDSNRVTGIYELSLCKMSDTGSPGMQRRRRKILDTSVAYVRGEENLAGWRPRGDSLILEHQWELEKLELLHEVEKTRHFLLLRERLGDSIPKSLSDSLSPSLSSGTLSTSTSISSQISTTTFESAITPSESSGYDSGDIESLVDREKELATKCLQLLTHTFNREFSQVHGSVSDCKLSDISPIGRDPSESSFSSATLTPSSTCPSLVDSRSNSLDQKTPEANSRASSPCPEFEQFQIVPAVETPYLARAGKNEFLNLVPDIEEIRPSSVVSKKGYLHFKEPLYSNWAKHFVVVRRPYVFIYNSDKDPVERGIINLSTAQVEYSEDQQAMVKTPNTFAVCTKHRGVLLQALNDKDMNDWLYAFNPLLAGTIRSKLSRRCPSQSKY

Key:
Experiment in all cases: log2 fold change, soluble protein after heating vs DMSO (PISA); higher = thermal stabilisation; K562 lysate, 10 uM; active = over 0.2 and 3.5 SD of the protein, either way, in both replicates (recomputed)
[1] = compound: C=CC(=O)N1CCC[C@@H](n2nc(-c3ccc(Oc4ccccc4)cc3)c3c(N)ncnc32)C1 [ibrutinib]
Method in brief: (§1)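 K562 pellets were dounce-homogenised in PBS pH 7.4 containing 1 mM MgCl2, and the crude extract, at 1 mg/mL protein, was exposed to 10 μM compound for 30 min. Aliquots were heated for 3 min across 48°C-58°C, pooled, brought to 0.5% NP-40 at 4°C and spun at 21,000xg for 90 min, with the supernatant taken as soluble protein. TMTpro 16plex LC-MS/MS with equalised channel sums quantified that protein. Values are log-two fold changes in thermal stability relative to solvent controls, taken from duplicates.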

[2] = compound: CC(=O)c1cnc2ccc(-c3cc(Cl)c(O)c(Cl)c3)nc2c1N[C@H]1CC[C@H](CN(C)C)CC1
Method in brief: as §1

[3] = compound: CC(C)(C)Cn1c(N)nc2ccc(-c3[nH]c(C(C)(C)C)nc3-c3ccc(F)cc3)nc21 [ralimetinib]
Method in brief: as §1

[4] = compound: CC(C)(O)CC(=O)NCCn1ccc2ncnc(Nc3ccc(Oc4cccc(C(F)(F)F)c4)c(Cl)c3)c21
Method in brief: as §1

[5] = compound: CC(C)C1=C2N=C(C=C(N2N=C1)NCC3=CC=CC=C3)NCCCCCCN
Method in brief: as §1

[6] = compound: CC1=C(C(CC(=O)N1)C2=CC=C(C=C2)C(F)(F)F)C(=O)NC3=C(C=C4C(=C3)C=NN4)F
Method in brief: as §1

[7] = compound: CC1=C(C2=C(C=C1)C(=O)C3=CC=CC=C3N2CCCN)C
Method in brief: as §1

[8] = compound: CC1=C(C=C(C=C1)NC(=O)C2=CC(=CC=C2)C(C)(C)C#N)NC3=CC4=C(C=C3)N=CN(C4=O)C
Method in brief: as §1

[9] = compound: CC1=C(C=C(C=C1)NC(=O)C2=CC(=CC=C2)N(C)C)NC(=O)C3=CC=C(C=C3)O
Method in brief: as §1

[10] = compound: CC1=CC=C(C=C1)SC2=C3C=C(SC3=CN=C2)C(=O)N
Method in brief: as §1

[11] = compound: CCCS(=O)(=O)Nc1ccc(F)c(C(=O)c2c[nH]c3ncc(-c4ccc(Cl)cc4)cc23)c1F [vemurafenib]
Method in brief: as §1

[12] = compound: CCCS(=O)(=O)Nc1ccc(F)c(C(=O)c2c[nH]c3ncc(Cl)cc23)c1F
Method in brief: as §1

[13] = compound: CCN(CCCOc1ccc2c(Nc3cc(CC(=O)Nc4cccc(F)c4)[nH]n3)ncnc2c1)CCOP(=O)(O)O [barasertib]
Method in brief: as §1

[14] = compound: CC[C@@H]1C(=O)N(C)c2cnc(Nc3ccc(C(=O)NC4CCN(C)CC4)cc3OC)nc2N1C1CCCC1
Method in brief: as §1

[15] = compound: CC[C@@H]1C(=O)N(C)c2cnc(Nc3ccc(C(=O)N[C@H]4CC[C@H](N5CCN(CC6CC6)CC5)CC4)cc3OC)nc2N1C(C)C [volasertib]
Method in brief: as §1

[16] = compound: CCn1c(C(=O)N(C2CC2)C2CC2)cc2c3c(ncn3C)c(Nc3cc(C)n(C)n3)nc21
Method in brief: as §1

[17] = compound: CCn1cc(-c2ccnc3[nH]c(-c4cccc(CN(C)C)c4)cc23)c(-c2ccc(NC(=O)N(C)C)cc2)n1
Method in brief: as §1

[18] = compound: CN1CCC(CNc2ccc3ncc(-c4cccc(OC(F)(F)F)c4)n3n2)CC1
Method in brief: as §1

[19] = compound: CN1CCN(CCOc2cc(OC3CCOCC3)c3c(Nc4c(Cl)ccc5c4OCO5)ncnc3c2)CC1 [saracatinib]
Method in brief: as §1

[20] = compound: CN1CCN(c2nc(C3=C(c4c[nH]c5ccccc45)C(=O)NC3=O)c3ccccc3n2)CC1 [sotrastaurin]
Method in brief: as §1

Target	log2 fold change [1]	log2 fold change [2]	log2 fold change [3]	log2 fold change [4]	log2 fold change [5]	log2 fold change [6]	log2 fold change [7]	log2 fold change [8]	log2 fold change [9]	log2 fold change [10]	log2 fold change [11]	log2 fold change [12]	log2 fold change [13]	log2 fold change [14]	log2 fold change [15]	log2 fold change [16]	log2 fold change [17]	log2 fold change [18]	log2 fold change [19]	log2 fold change [20]
KIF13B (UniProt Q9NQT8)	inactive: 0.044	inactive: 0.021	inactive: 0.023	inactive: -0.128	inactive: 0.018	inactive: -0.026	inactive: -0.046	inactive: -0.064	inactive: -0.037	inactive: -0.02	inactive: 0.025	inactive: 0.009	inactive: 0.028	inactive: -0.025	inactive: -0.06	inactive: 0.03	inactive: 0.007	inactive: -0.013	inactive: 0.005	inactive: -0.011
KLC4 isoform 3 (UniProt Q9NSK0)	inactive: -0.007	inactive: 0.012	inactive: 0.008	inactive: -0.023	inactive: -0.024	inactive: -0.018	inactive: 0.009	inactive: 0.019	inactive: -0.001	inactive: 0.003	inactive: -0.038	inactive: 0.02	inactive: -0.008	inactive: 0.038	inactive: -0.029	inactive: 0.052	inactive: 0.011	inactive: -0.018	inactive: -0.012	inactive: 0.003
KIF23 isoform 2 (UniProt Q02241)	inactive: -0.007	inactive: 0.013	inactive: 0.044	inactive: -0.034	inactive: 0.024	inactive: -0.013	inactive: -0.038	inactive: 0.007	inactive: 0.028	inactive: 0.071	inactive: 0.135	inactive: 0.002	inactive: 0.05	inactive: 0.05	inactive: 0.032	inactive: -0.012	inactive: 0.007	inactive: -0.003	inactive: -0.002	inactive: 0.031
KXD1 (UniProt Q9BQD3)	inactive: 0.087	inactive: 0.016	inactive: -0.053	inactive: -0.047	inactive: -0.003	inactive: -0.156	inactive: -0.018	inactive: -0.003	inactive: -0.04	inactive: 0.028	inactive: -0.088	inactive: -0.065	inactive: 0.003	inactive: -0.008	inactive: -0.016	inactive: 0.041	inactive: 0.045	inactive: -0.004	inactive: 0.045	inactive: -0.025
KIAA0319L (UniProt Q8IZA0)	inactive: 0.068	inactive: -0.013	inactive: -0.001	inactive: 0.039	inactive: -0.037	inactive: 0.021	inactive: -0.003	inactive: -0.021	inactive: -0.015	inactive: 0.002	inactive: -0.012	inactive: -0.028	inactive: 0.032	inactive: 0.046	inactive: 0.016	inactive: 0.007	inactive: 0.03	inactive: 0.006	inactive: 0.046	inactive: -0.003
KIAA0100 (UniProt Q14667)	inactive: -0.047	inactive: 0	inactive: -0.027	inactive: -0.167	inactive: 0.042	inactive: 0.009	inactive: -0.091	inactive: -0.005	inactive: 0.068	inactive: 0.036	inactive: -0.022	inactive: 0.033	inactive: 0.025	inactive: 0	inactive: -0.001	inactive: -0.081	inactive: 0.063	inactive: 0.02	inactive: 0.037	inactive: 0.204
KIF4B (UniProt Q2VIQ3)	inactive: 0.027	inactive: 0.005	inactive: 0.004	inactive: -0.03	inactive: 0.013	inactive: 0.04	inactive: -0.018	inactive: 0.01	inactive: 0.002	inactive: -0.036	inactive: -0.026	inactive: 0.047	inactive: -0.015	inactive: -0.102	inactive: -0.003	inactive: 0.009	inactive: 0.007	inactive: -0.073	inactive: -0.002	inactive: -0.01
KPNA6 (UniProt O60684)	inactive: -0.005	inactive: -0.014	inactive: 0.013	inactive: 0.022	inactive: 0.033	inactive: -0.003	inactive: -0.02	inactive: 0.068	inactive: 0.025	inactive: -0.002	inactive: -0.184	inactive: 0.019	inactive: 0.007	inactive: -0.063	inactive: -0.04	inactive: 0.024	inactive: -0.012	inactive: -0.095	inactive: 0.006	inactive: 0.017
LARP1B, A0A3B3ISF0	inactive: -0.059	inactive: -0.011	inactive: -0.035	inactive: 0.008	inactive: -0.084	inactive: -0.016	inactive: -0.024	inactive: -0.077	inactive: 0.01	inactive: 0.152	inactive: 0.067	inactive: -0.068	inactive: -0.04	inactive: 0.026	inactive: -0.036	inactive: 0.029	inactive: -0.028	inactive: -0.034	inactive: -0.014	inactive: 0.022
KLHL42 (UniProt Q9P2K6)	inactive: 0.004	inactive: -0.115	inactive: 0.091	inactive: 0.007	inactive: 0.022	inactive: -0.004	inactive: 0.125	inactive: -0.012	inactive: -0.01	inactive: 0.004		inactive: -0.017	inactive: 0.046		inactive: 0.038	inactive: 0.061	inactive: -0.013	inactive: 0.073	inactive: 0	inactive: -0.114
KRIT1 (UniProt O00522)	inactive: 0.089	inactive: -0.047	inactive: 0.001	inactive: -0.02	inactive: 0.045	inactive: -0.041	inactive: -0.075	inactive: 0.045	inactive: -0.011	inactive: -0.095	inactive: -0.084	inactive: 0.051	inactive: -0.084	inactive: -0.009	inactive: 0.036	inactive: -0.052			inactive: -0.103	inactive: 0.049
LAMB1 (UniProt P07942)	inactive: 0.043	inactive: 0.019	inactive: 0.059	inactive: 0.01	inactive: 0.004	inactive: 0	inactive: -0.008	inactive: -0.016	inactive: 0.047	inactive: 0	inactive: -0.035	inactive: 0	inactive: 0.053	inactive: 0.021	inactive: 0.014	inactive: 0.007	inactive: 0.049	inactive: 0.006	inactive: 0.044	inactive: 0.022
KIF1C (UniProt O43896)	inactive: -0.253	inactive: -0.008	inactive: 0.058	inactive: -0.078	inactive: 0.011	inactive: 0.117		inactive: -0.041	inactive: -0.169	inactive: -0.007	inactive: 0.052	inactive: -0.026	inactive: -0.107	inactive: 0.411	inactive: 0	inactive: 0.029	inactive: -0.025	inactive: 0.046		inactive: 0.014
LAMTOR5 (UniProt O43504)	inactive: 0.026	inactive: -0.035	inactive: 0.078	inactive: -0.039	inactive: 0.011	inactive: -0.118	inactive: -0.019	inactive: 0.008	inactive: -0.032	inactive: 0.048	inactive: -0.066	inactive: 0.029	inactive: 0.124	inactive: 0.013	inactive: 0.025	inactive: -0.007	inactive: 0.032	inactive: -0.187	inactive: 0.091	inactive: 0.038
KHK isoform 2 (UniProt P50053)	inactive: 0.023	inactive: 0.039	inactive: 0.001	inactive: -0.032	inactive: -0.033	inactive: 0.013	inactive: -0.025	inactive: 0.185	inactive: -0.033	inactive: -0.04	inactive: -0.021	inactive: 0	inactive: 0.052	inactive: -0.053	inactive: 0.017	inactive: 0.076	active: 0.404	inactive: -0.072	inactive: 0.067	inactive: 0.013
KIF1B isoform 2 (UniProt O60333)	inactive: 0.007	inactive: -0.028	inactive: 0.049	inactive: 0.012	inactive: -0.041	inactive: -0.019	inactive: -0.014	inactive: 0.018	inactive: 0.01	inactive: 0.004	inactive: 0.006	inactive: 0.004	inactive: 0.048	inactive: 0.014	inactive: -0.059	inactive: -0.008	inactive: -0.024	inactive: -0.026	inactive: 0.007	inactive: 0.006

Reprinted at random: 2 records from the list
Target	log2 fold change [1]	log2 fold change [2]	log2 fold change [3]	log2 fold change [4]	log2 fold change [5]	log2 fold change [6]	log2 fold change [7]	log2 fold change [8]	log2 fold change [9]	log2 fold change [10]	log2 fold change [11]	log2 fold change [12]	log2 fold change [13]	log2 fold change [14]	log2 fold change [15]	log2 fold change [16]	log2 fold change [17]	log2 fold change [18]	log2 fold change [19]	log2 fold change [20]
KIAA0100 (UniProt Q14667)	inactive: -0.047	inactive: 0	inactive: -0.027	inactive: -0.167	inactive: 0.042	inactive: 0.009	inactive: -0.091	inactive: -0.005	inactive: 0.068	inactive: 0.036	inactive: -0.022	inactive: 0.033	inactive: 0.025	inactive: 0	inactive: -0.001	inactive: -0.081	inactive: 0.063	inactive: 0.02	inactive: 0.037	inactive: 0.204
KRIT1 (UniProt O00522)	inactive: 0.089	inactive: -0.047	inactive: 0.001	inactive: -0.02	inactive: 0.045	inactive: -0.041	inactive: -0.075	inactive: 0.045	inactive: -0.011	inactive: -0.095	inactive: -0.084	inactive: 0.051	inactive: -0.084	inactive: -0.009	inactive: 0.036	inactive: -0.052			inactive: -0.103	inactive: 0.049
